Earlier results, collected in PMC3167688 (Nuclear medicine and biology, 2009).

Experiments:
[1] = tested on: neprilysin; conditions: albeit with lower potency than class I and II HDACs; cited from earlier work
[2] = tested on: ACE (angiotensin-converting enzyme); conditions: albeit with lower potency than class I and II HDACs; cited from earlier work
[3] = tested on: kinases and phosphatases; conditions: cited from earlier work

O=C(CCCCCCC(=O)Nc1ccccc1)NO [SAHA, suberanilohydroxamic acid]
inhibition of neprilysin [1]: inhibit | inhibition of ACE [2]: inhibit | inhibitory activity to a number of kinases and phosphatases [3]: no inhibitory activity
